Library screen at single concentrations

Amino acid sequences for entries named in this document (tags omitted).
UniProt P9WPC5, whole entry: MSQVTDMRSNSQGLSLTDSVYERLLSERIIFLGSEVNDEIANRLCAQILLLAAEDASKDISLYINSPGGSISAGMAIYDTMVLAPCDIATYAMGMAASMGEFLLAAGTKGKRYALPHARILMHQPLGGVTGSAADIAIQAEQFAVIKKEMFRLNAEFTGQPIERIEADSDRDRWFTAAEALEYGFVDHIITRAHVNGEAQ
UniProt P9WPC3, whole entry partner: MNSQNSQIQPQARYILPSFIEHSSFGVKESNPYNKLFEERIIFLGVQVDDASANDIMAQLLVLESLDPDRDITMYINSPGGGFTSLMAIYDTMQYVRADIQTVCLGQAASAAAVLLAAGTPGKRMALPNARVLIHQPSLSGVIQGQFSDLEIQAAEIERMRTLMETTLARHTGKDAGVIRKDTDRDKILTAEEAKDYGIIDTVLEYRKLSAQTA

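ClpP1P2, Mycobacterium tuberculosis (UniProt P9WPC5 and UniProt P9WPC3). Protease assay of ClpP1P2, read by the AMC dye that it sets free. Tested at 50 µM. Higher reads as stronger inhibition, judged from the few compounds that gave an IC50. Most other retested compounds had strongly negative values. Of about 69,000 compounds tested this way, about 10 (0.015%) reached 50% or more in at least one test.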

The filed quantity is “Percent Effect” (%).
The controls that fix the scale are not given in the record; negative values are as filed.
Compounds were drawn at random from those tested, without regard to their results.

SMILES	percent effect
CN(C)Cc1cnc(C2CCN(C(=O)c3ccccc3F)C2)[nH]1 (stereo not shown)	-10.9%
CCc1nnc2n1CCN(CC(=O)Nc1cc(C(C)(C)C)nn1C)C2	1.155%
Cc1cc(NC(C)c2nncn2C2CCCC2)n2nc(C)cc2n1 (stereo not shown)	15.31%
O=C(c1ccccc1)N1C[C@@H]2CC[C@H](C1)N(C(=O)CN1CCOCC1)C2	-2.519%
CS(=O)(=O)Cc1ccc(OCc2ccc(F)cc2)cc1	-8.573%
Cc1nc[nH]c1CN1CCCC12CCN(c1ccccn1)CC2	3.147%
Cc1cccc(N2Cc3nc(=O)n(Cc4cccc(F)c4)n3C2=O)c1	-6.472%
CN(C)CC1CN(Cc2coc(-c3ccc(Cl)cc3)n2)CCO1 (stereo not shown)	3.888%
COc1cccc2c1OCC(Cc1cc(C(N)=O)ccn1)C2 (stereo not shown)	12.37%
Cc1ccc(N2CC[C@@H]3[C@@H]2CCN3C(=O)Cc2ccsc2)nn1	-5.278%
Cc1csc(N2CCCN(C(=O)c3cccs3)CC2)n1	-21.04%
COC[C@]1(O)CCN(C2CCN(c3ccc(OC)cc3)CC2)CC1(C)C	3.142%
CN(CCNC(=O)Nc1ccncc1)C1CCCCC1	18.47%
Cn1c(=O)c2cc(C(=O)NCc3ccncc3)ccc2n(C)c1=O	13.96%
Cc1nc(NCCCn2cccn2)c2c(n1)c(C)nn2C	7.391%
CCCS(=O)(=O)c1ncc(CN2CCC(CO)CC2)n1CC1CCCO1 (stereo not shown)	-15.11%
CC(C(=O)NC1(C#N)CCCCC1)N1CCc2c(ncn2C)C1 (stereo not shown)	0.2949%
Cn1cccc1CN1CCC2(CC1)CC(Oc1cccnc1)C2	0.8704%
COCCN1CCN(Cc2ccc(Cl)cc2)[C@H]2CS(=O)(=O)C[C@H]21	-1.876%
COC[C@H](C)Nc1cc(C)c2ccc(SC)cc2n1	-24.68%
CC(C)c1cc(=O)[nH]c(C(C)(C)N)n1	-1.049%
Cn1ncc2c(N3CCC(F)(F)CC3)nc(-c3ccncc3)nc21	-15.65%
Cn1c(C2CC2)nc2cc(NC(=O)C3CCOC3)ccc21 (stereo not shown)	-1.172%
N#Cc1cccc(OCCN2CCCC2C(=O)N2CCSCC2)c1 (stereo not shown)	-0.8302%
CNS(=O)(=O)c1ccc(CN2CCCC2c2ccc(F)cc2)cc1 (stereo not shown)	-5.897%
Cc1ccc(CN2CCOC3(CCN(C(=O)N4CCCC4)CC3)C2)cc1	4.627%
CC(=O)N1CCN(C(=O)CN(C)c2ccc(Cl)cn2)CC1	2.219%
CC(C)c1nc(CNc2ccc(CNS(C)(=O)=O)cc2)cs1	1.97%
Cc1cc(CN2CC[C@@H]3[C@@H](CCC(=O)N3CCc3c[nH]cn3)C2)oc1C	-12.53%
CNc1cc2c(nn1)CCN(C(=O)c1coc(Br)c1)C2	-130.9%
Cc1nc(C(=O)N2CC[C@@]3(C[C@@H](NS(C)(=O)=O)CCO3)C2)cs1	-3.664%
CC(C)c1ccc(-c2nnn(CCNS(C)(=O)=O)n2)cc1	-3.864%
Cc1nn(C)c(N(C)C)c1CNCc1ccc(C(=O)N(C)C)cc1	-7.507%
CN1CC(=O)N(c2cccc(F)c2)CC12CCN(S(=O)(=O)C1CC1)C2 (stereo not shown)	-0.1229%
Cc1cc(C2CCCN(Cc3ncc(C(C)C)o3)C2)n[nH]1 (stereo not shown)	-11.7%
CCCN1CCN(C(=O)c2cncnc2C)[C@H]2CS(=O)(=O)C[C@H]21	9.058%
Cn1cc(NC(=O)C2CC(=O)N(c3n[nH]c4cccc(F)c34)C2)cn1 (stereo not shown)	11.35%
Cc1nc(CNCC2CCCN2c2cccnn2)no1 (stereo not shown)	2.005%
Cc1noc(CN(Cc2cccc(C#N)c2)Cc2ccco2)n1	-7.594%
CN(C)C(=O)CN1CCc2ncnc(N(C)C)c2CC1	-4.17%
CC(C)c1nc(C2CCCN(C(=O)c3ccc4[nH]cnc4c3)C2)no1 (stereo not shown)	5.113%
CC(=O)N1CCC(C(=O)c2cnn(-c3ccccc3)c2N)C1 (stereo not shown)	-5.556%
CN(C)c1cccc(C2CCN(c3ncccn3)CC2)n1	-2.261%
CC(C#N)CN(C)C(=O)c1cn(-c2ccc(Br)cc2)cn1 (stereo not shown)	-8.418%
COc1ccc(OC2CCN(C(=O)c3ccc(C)[nH]c3=O)CC2)cc1	-25.64%
CC(NC(=O)CCn1cccn1)c1cn(-c2ccccc2)nn1 (stereo not shown)	-21.06%
CC(C)C(NC(=O)c1cnc(N2CCOCC2)nc1)c1cccs1 (stereo not shown)	2.586%
Cc1ccc(CN2CC[C@H]3[C@H]2CCN3S(=O)(=O)C2CC2)cc1	-5.237%
CC(=O)c1c(F)cccc1NCC(O)C(C)(C)C (stereo not shown)	2.433%
O=C1N(c2cncnc2)CCC12CCCN(Cc1ccccn1)C2 (stereo not shown)	-15.2%
Cc1ccc(-n2nnc(CC(=O)N3CCN(C(C)C)CC3)c2C)cc1	-11.51%
CCc1nccn1CCC(=O)N1CC(=O)N(c2ccccc2C)CC1C (stereo not shown)	-7.861%
O=C(c1ccccc1F)N1CCCC1Cn1c(=O)oc2ccccc21 (stereo not shown)	-18.86%
c1cc(-c2nnc(C3(c4ccc5c(c4)OCO5)CCOCC3)o2)ccn1	-3.141%
CN(C(=O)c1ccco1)c1nc2c(s1)CCCC2	10.83%
CN1CC2(CCCN(C(=O)Cc3cccc(O)c3)C2)OC1=O (stereo not shown)	-4.461%
Cc1csc(CN2CC[C@H]3O[C@H](C(=O)Nc4cccnc4)CC[C@H]32)n1	4.519%
Cc1cnn(CC2CCCN2CCCS(C)(=O)=O)c1 (stereo not shown)	-15.16%
COCCOCC(=O)N(C)Cc1ccc(OCc2cccs2)cc1	0.5209%
CCOC(=O)C1CCN(C(=O)c2cc(OCC)c3ccoc3c2)CC1	-32.83%
CC(C)c1n[nH]c(C2CN(C(=O)c3csnn3)CCO2)n1 (stereo not shown)	-6.002%
COCCn1ccc(NC(=O)CNC(=O)CC(C)(C)C)n1	-15.37%
CCOc1ccc(OCC(O)CN2CCN(S(C)(=O)=O)CC2)cc1 (stereo not shown)	-39.92%
CN(Cc1ccc(Cl)s1)C(=O)NCCC(=O)N1CCCCCC1	-18.34%
CC(C)(C)c1nc(CN(CCC2CCCCC2)CC(N)=O)no1	2.805%
Cc1nc(-c2ccccc2)n(CC(=O)NC(C)C)n1	-29.21%
CC(C)N(C)CC(=O)NC1CCc2nccn2C1 (stereo not shown)	-10.81%
Cc1cc(NC(N)=O)ccc1OCC(F)(F)F	-9.924%
CCN(CC)c1nc2ccsc2c(=O)n1CCC(=O)NCc1cccs1	7.191%
Cc1ccc(C(N)c2cccc(S(C)(=O)=O)c2)cc1 (stereo not shown)	-6.337%
O=C(c1cc(-c2cccnc2)[nH]n1)N1CCCC(c2cnccn2)C1 (stereo not shown)	32.25%
COc1ccccc1CC(C)N(C)S(C)(=O)=O (stereo not shown)	-7.39%
CC(C)n1cc(CN2CCCN(C(=O)c3ccc[nH]3)CC2)cn1	5.406%
Cc1cc(Nc2cnccn2)cc(C2CCCN2)n1 (stereo not shown)	-1.254%
O=C(CNC1CCc2ncnn2C1)N(C1=CCCCC1)C1CC1 (stereo not shown)	-4.713%
O=C(Nc1nc2c(s1)CN(S(=O)(=O)C1CC1)CC2)c1ccc(Cl)s1	-9.95%
CCS(=O)(=O)N(C)CCCNCc1c(C)nn(C)c1N(C)C	-9.303%
Cc1nc(CCCNC(=O)C2CC(=O)N(C3CC3)C2)sc1C (stereo not shown)	7.559%
COc1cccc(S(=O)(=O)N2C[C@H](OC)[C@]3(CCCO3)C2)c1	-5.62%
NS(=O)(=O)c1cccnc1Nc1c(Cl)cccc1Cl	29.3%
CN(C1CCN(C(=O)NCCc2ccc(F)cc2F)CC1)S(C)(=O)=O	-6.356%
CCNc1ncc(C(=O)NC2CCSC2)cn1 (stereo not shown)	5.179%
Cc1cnccc1-n1nc(C(C)C)nc1CCN(C)S(C)(=O)=O	2.39%
O=S(=O)(Cc1ccc(Br)cc1)NCCO	12.73%
CC(C)c1ccc(OCCC(=O)N2CCC(C(=O)N(C)C)CC2)cc1	-29.01%
O=C(NCc1cc2ccccc2s1)c1cc(CN2CCCC(O)C2)on1 (stereo not shown)	-12.72%
CCOCC(O)CN1CCN(C(=O)CC(C)C)CC1 (stereo not shown)	14.41%
CN(C)C(=O)CCNC(=O)c1cnc(-c2ccccc2)nc1	-1.786%
CN(C)c1ncccc1CNC(=O)CCNc1ncccn1	14.12%
CCOC(C)C(=O)N1CCN(S(C)(=O)=O)CC1 (stereo not shown)	7.146%
Cc1ncsc1-c1nc(CC2CCN(C)CC2)nn1Cc1ccccc1	-3.226%
c1ccc(-c2nc3c(c(NCCc4c[nH]cn4)n2)CCNC3)cc1	-9.261%
COc1cccc(CC(C)NC(=O)c2ccc(CNC(C)=O)cc2)c1 (stereo not shown)	-13.2%
CC(CNC(=O)c1cc(C2CC2)nc2c1cnn2C)Cn1cccn1 (stereo not shown)	4.535%

The first 5 entries again:

- CN(C)Cc1cnc(C2CCN(C(=O)c3ccccc3F)C2)[nH]1 (stereo not shown) | -10.9%
- CCc1nnc2n1CCN(CC(=O)Nc1cc(C(C)(C)C)nn1C)C2 | 1.155%
- Cc1cc(NC(C)c2nncn2C2CCCC2)n2nc(C)cc2n1 (stereo not shown) | 15.31%
- O=C(c1ccccc1)N1C[C@@H]2CC[C@H](C1)N(C(=O)CN1CCOCC1)C2 | -2.519%
- CS(=O)(=O)Cc1ccc(OCc2ccc(F)cc2)cc1 | -8.573%

Data taken from ChEMBL document CHEMBL3988442, “University of Dundee, Small-Polar-MMV Screening Library” (2021).